{"source": "paper PMC9256790", "about": "(Molecular cancer therapeutics, 2022)", "assay_in_all_cases": "Cell proliferation", "assay_type_in_all_cases": "cell-based", "key": {"MDA-MB-468/TxR": {"tested_on": "MDA-MB-468/TxR", "conditions": "Homo sapiens, MDA-MB-468, read-out: Mean IC50 ± SEM"}, "MDA-MB-468": {"tested_on": "MDA-MB-468", "conditions": "Homo sapiens, MDA-MB-468, read-out: Mean IC50 ± SEM"}, "MDA-MB-231": {"tested_on": "MDA-MB-231", "conditions": "Homo sapiens, MDA-MB-231, read-out: Mean IC50 ± SEM"}, "Mia PaCa-2": {"tested_on": "Mia PaCa-2", "conditions": "Homo sapiens, MIA PaCa-2, read-out: Mean IC50 ± SEM"}, "cHCI-2": {"tested_on": "cHCI-2", "conditions": "Homo sapiens, 120 h, read-out: Mean IC50 ± SEM"}, "cHCI-10": {"tested_on": "cHCI-10", "conditions": "Homo sapiens, 120 h, read-out: Mean IC50 ± SEM"}, "MDA-MB-231/TxR": {"tested_on": "MDA-MB-231/TxR", "conditions": "Homo sapiens, read-out: Mean IC50 ± SEM"}}}
{"smiles": "COc1cc2c(c(OC)c1OC)-c1ccc(OC)c(=O)cc1[C@@H](NC(C)=O)CC2", "note": "[Colchicine]", "values": [{"measurement": "IC50", "setting": "MDA-MB-468/TxR", "result": "41.9 ± 5.7", "unit": "nM"}, {"measurement": "IC50", "setting": "MDA-MB-468", "result": "7.9 ± 1.4", "unit": "nM"}, {"measurement": "IC50", "setting": "MDA-MB-231", "result": "23.7 ± 3.1", "unit": "nM"}, {"measurement": "IC50", "setting": "Mia PaCa-2", "result": "20.3 ± 2.3", "unit": "nM"}, {"measurement": "IC50", "setting": "cHCI-2", "result": "16.6 ± 6.9", "unit": "nM"}, {"measurement": "IC50", "setting": "cHCI-10", "result": "23.4 ± 8.4", "unit": "nM"}, {"measurement": "IC50", "setting": "MDA-MB-231/TxR", "result": "36.8 ± 6.4", "unit": "nM"}]}
